The values below come from article PMC11586526.

Chains of the proteins cited; added tags and fusions are not shown.
UniProt P19524: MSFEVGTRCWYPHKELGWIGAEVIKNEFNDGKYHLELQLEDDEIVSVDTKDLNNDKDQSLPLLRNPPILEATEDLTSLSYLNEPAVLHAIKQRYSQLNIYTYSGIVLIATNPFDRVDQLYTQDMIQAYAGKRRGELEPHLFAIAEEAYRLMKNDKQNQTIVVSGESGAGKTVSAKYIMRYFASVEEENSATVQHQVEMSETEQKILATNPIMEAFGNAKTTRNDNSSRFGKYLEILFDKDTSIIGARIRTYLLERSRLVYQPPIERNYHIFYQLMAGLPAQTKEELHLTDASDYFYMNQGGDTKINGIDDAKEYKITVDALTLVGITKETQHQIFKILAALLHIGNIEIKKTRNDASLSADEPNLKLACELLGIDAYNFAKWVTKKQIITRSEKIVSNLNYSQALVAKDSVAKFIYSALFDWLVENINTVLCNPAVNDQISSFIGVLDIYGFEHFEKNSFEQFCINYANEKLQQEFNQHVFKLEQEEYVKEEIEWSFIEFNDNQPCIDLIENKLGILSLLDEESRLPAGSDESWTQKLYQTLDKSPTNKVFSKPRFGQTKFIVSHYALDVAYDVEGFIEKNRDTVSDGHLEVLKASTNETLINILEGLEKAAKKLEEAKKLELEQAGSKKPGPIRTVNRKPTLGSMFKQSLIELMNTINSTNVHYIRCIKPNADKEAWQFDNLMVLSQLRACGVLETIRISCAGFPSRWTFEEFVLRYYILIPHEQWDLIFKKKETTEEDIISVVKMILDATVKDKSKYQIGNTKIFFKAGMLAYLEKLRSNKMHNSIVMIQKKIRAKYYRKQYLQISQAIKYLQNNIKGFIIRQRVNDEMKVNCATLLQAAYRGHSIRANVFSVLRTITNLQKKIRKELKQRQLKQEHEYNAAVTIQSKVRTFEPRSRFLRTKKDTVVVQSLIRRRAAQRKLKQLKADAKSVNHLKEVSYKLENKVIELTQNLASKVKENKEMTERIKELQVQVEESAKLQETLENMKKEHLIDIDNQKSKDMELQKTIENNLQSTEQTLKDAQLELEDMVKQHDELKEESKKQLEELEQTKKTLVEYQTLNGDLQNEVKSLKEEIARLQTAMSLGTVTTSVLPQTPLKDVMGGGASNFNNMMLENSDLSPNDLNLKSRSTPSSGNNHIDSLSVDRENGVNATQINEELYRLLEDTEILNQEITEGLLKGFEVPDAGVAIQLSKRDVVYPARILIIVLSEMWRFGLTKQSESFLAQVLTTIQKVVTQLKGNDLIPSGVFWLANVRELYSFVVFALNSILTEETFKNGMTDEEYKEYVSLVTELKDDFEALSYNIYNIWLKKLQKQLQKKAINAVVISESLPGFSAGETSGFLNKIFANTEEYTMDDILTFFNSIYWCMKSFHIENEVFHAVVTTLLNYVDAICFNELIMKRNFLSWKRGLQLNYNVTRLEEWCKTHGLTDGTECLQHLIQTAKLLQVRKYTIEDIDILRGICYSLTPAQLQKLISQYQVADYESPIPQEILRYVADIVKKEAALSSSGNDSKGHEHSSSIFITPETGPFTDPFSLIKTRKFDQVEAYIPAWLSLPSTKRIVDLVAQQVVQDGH

The experiment has as its target Myo2 tagged with GFP in the genome (Myo2-GFP) (S. cerevisiae) (UniProt P19524). Put plainly: co-IP; Myo2-GFP affinity purified on GFP-Trap agarose from extracts of WT and kin4Δfrk1Δ yeast cells expressing Vac17-ProtA; blots with anti-GFP and PAP.

No constants are given. Whether binding was seen depends on the method and setting. Binding seen in cells or lysates may run through a third protein. Some results given as binding are weak or reduced against the parent protein; the word gives no strength. Sequences can lack the tags named with a protein.

B1: Vac17 tagged with Staphylococcus aureus protein A (Vac17-ProtA) (protein, UniProt P25591 1-423)
chain: MATQALEDITERLLIRSQEAILQLDLWIQRQQRSSICQTTDQESLDKLSQQYNQYMSQLNSLYVRSESVRDKLSKEQQRRLITEDNEHQRIEDLVREFQDITLRLNELATVPNEAPNDSPQSQSTRSSLGSFQPRPLKIIERQRLCMVTPSKPPKKSVGFNPINEVDCPSKTNSLPCSPKKQPARNRTLRAAKSHDTGLNKSKKPSSSDTYESFFKNRQRLSLTFFDEMDDEDFDSDQDTIILPNISTPPHVGVTAKGAEFEPLRRYNSHESILSNKPAPSKSLNLGSFSASFFRPSNPTFGTSISNVQVNCHPTVAATMAPSRNGPRISSSKALLSSFIARSDTHTVKENNTNLKHASFMDKFNSSLSTISESFQSKRGRKNKGMNEERISNHNVAQEQKNNMDISVSIEELQDALNTELLF
Regarding B1, the binding entry was “binds”.
